From patent US20110184188A1, “Insecticidal Benzenedicarboxamide Derivative” (priority 2008, published 2011)
Some entries share one result that the patent states for a list of compounds.

System: Boophilus microplus
Test: Test to Boophilus microplus (injection into engorged female adults)
Type: in vivo
Settings: treated amount 20 μg/insect

Row | SMILES | insecticide activity (mortality, eggs not hatching) [%]
1 | CSC[C@H](C)NC(=O)c1c(Br)cccc1C(=O)Nc1ccc(Cn2cc(C(F)(F)C(F)(F)F)c(C(F)(F)C(F)(F)F)n2)cc1C [13-132, N^1-(4-{[3,4-bis(pentafluoroethyl)-1H-pyrazol-1-yl]methyl}-2-methylphenyl)-3-bromo-N^2-[(1S)-1-methyl-2-(methylthio)ethyl]-1,2-benzenedicarboxamide] | ≥ 80
2 | Cc1cc(Cn2cc(C(F)(F)C(F)(F)F)c(C(F)(F)C(F)(F)F)n2)ccc1NC(=O)c1cccc(Br)c1C(=O)N[C@@H](C)C[S+](C)[O-] (stereo partly drawn) [13-137, N^1-(4-{[3,4-bis(pentafluoroethyl)-1H-pyrazol-1-yl]methyl}-2-methylphenyl)-3-bromo-N^2-[(1S)-1-methyl-2-(methylsulfinyl)ethyl]-1,2-benzenedicarboxamide] | ≥ 80
